The IC50 is the point on the concentration scale where inhibition reaches its midpoint.

This test has as its target Syk kinase (Homo sapiens, UniProt P43405). Kind of test: Syk kinase inhibition, Caliper LabChip off-chip mobility-shift kinase assay. Particulars: read-out: Syk Enzyme IC50. The protocol:
Compounds of the examples and Table 1 provided herein were assayed to measure their capacity to inhibit Syk kinase.
Compounds of the examples and Table 1 provided herein were assessed for their ability to inhibit Syk kinase by utilizing Caliper Life Sciences' proprietary LabChip™ technology. The off-chip incubation mobility-shift kinase assay uses a microfluidic chip to measure the conversion of a fluorescent peptide substrate to a phosphorylated product. The reaction mixture, from a microtiter plate well, is introduced through a capillary sipper onto the chip, where the nonphosphorylated substrate and phosphorylated product are separated by electrophoresis and detected via laser induced fluorescence. […] The phosphorylated product migrates through the chip faster than the non-phosphorylated substrate, and signals from the two forms of the peptide appear as distinct peaks. Caliper's data analysis software (HTSWA) determines peak heights, from which the ratio of product to the peak sum P/(P+S) and percent (%) conversion is calculated. This value is used to compare compound wells to control wells present on the plate, and thereby determine the % inhibition values for the compound. […]

Structures were worked out from names or drawings and are uncertain.

As for `CNS(=O)(=O)c1ccc(Nc2nc(Nc3cc(C)ccn3)cc3ccn(C)c(=O)c23)cc1` [compound 349], the half-inhibitory concentration (IC50) was determined as 218 nM.

For the origin of these results see patent publication US20110053897A1 (IRM LLC, priority 2009, published 2011).
